According to PubChem BioAssay AID2685 (National Center for Advancing Translational Sciences (NCATS), 2010):
Some of the results follow. The main result of the screen is listed elsewhere. These columns were measured beside it and carry no call. The list favours compounds with an active or inconclusive main result. The note in brackets gives the kind of curve behind each potency; many fits are weak. Where a SMILES comes first, the peptide text is derived from it. The star is where a group is joined. Cbz = O=C(OCc1ccccc1)*

Test: qHTS Assay for Lipid Storage Modulators in Drosophila S3 Cells;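 for cell number change: cells counted by Cell Tracker Red CMTPX staining in the red channel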
Settings: BODIPY lipid droplet fluorescence, 18-24 h; for cell number change: measured here: cell count max response, cells fed with added oleic acid
Method in brief: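 Laser-scanning cytometry quantifies lipid droplet accumulation (500–530 nm total intensity; droplet/cell object ratio) in oleic acid-fed (400 uM added) Drosophila S3 cells treated with a concentration series. 20 uM Triacsin C defined 100% inhibition.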

[1] = measured here: lipid fluorescence (Fed channel) AC50, cells fed with added oleic acid
[2] = measured here: cell number channel AC50, cells fed with added oleic acid

| SMILES | cell number change [%] | AC50 [1] | AC50 [2] |
| --- | --- | --- | --- |
| c1ccc(Cc2nc(-c3ccccn3)no2)cc1 | -25.6 | – | – |
| COC(=O)C1=C(C)NC(C)=C(C(=O)OC)C1c1cc2ccc(C)cc2[nH]c1=O | -11.9 | – | – |
| Cc1cc(-c2nnc3n2N=C(C(C)(C)C)CS3)n[nH]1 | -3.59 | 3.66 µM [falling, single point] | – |
| O=C(Nc1nccs1)c1cc2c(s1)CCCCC2 | -9.22 | 7.31 µM [rising, single point] | – |
| Cc1c(CCOC(=O)CC23CC4CC(CC(C)(C4)C2)C3)sc[n+]1Cc1ccc([N+](=O)[O-])cc1 | -43.7 | 18.4 µM [falling, partial curve] | 18.4 µM [falling, single point] |
| Cc1ccc(NC(=O)c2cc(CC(C)C)nc3ccccc23)cc1 | 18 | 0.651 µM [rising, full curve] | – |
| Cc1onc(-c2ccccc2Cl)c1C(=O)N1CCN(c2ncccn2)CC1 | 5.97 | 0.146 µM [falling, full curve, poor fit] | – |
| CC(=O)Nc1ccc(S(=O)(=O)Oc2ccc(/C=N/NC(=O)c3ccc(Cl)cc3)cc2)cc1 | -21.7 | 18.4 µM [falling, single point] | – |
| COc1ccc(NC(=O)CN(c2ccc([N+](=O)[O-])cc2)S(=O)(=O)c2ccccc2)cc1 | -40.3 | – | 4.61 µM [falling, full curve, poor fit] |
| CCc1cc(=O)oc2cc(C)cc(OC(C)C(=O)NCCCn3ccnc3)c12 (stereo unspecified) | 12.9 | 0.731 µM [falling, partial curve, poor fit] | – |
| CCN(CC)C(=O)COCc1cc(-c2ccc3c(c2)OCO3)on1 | – | 6.51 µM [rising, single point] | – |
| COc1ccc(-c2nnc3ccc(SC)nn23)cc1 | -0.117 | 6.51 µM [falling, single point] | – |
| Cc1cc(NC2CCCCC2)nc(N2CCOCC2)n1 | 21.2 | 14.6 µM [rising, single point] | – |
| CN1C(C(=O)NCc2cccc(Br)c2)CC2Cn3c(nc4cc5ccccc5cc43)C21 (stereo unspecified) | 42.3 | 29.1 µM [rising, single point] | – |
| Clc1ccccc1CSc1nnc(Cn2cnc3ccccc32)n1-c1ccccc1 | 1.84 | 25.9 µM [falling, single point] | – |
| Cc1cccc(/C=C2/Sc3ccc(C(=O)NCCN4CCCC4)cc3NC2=O)c1 | -15.6 | 0.116 µM [falling, full curve, poor fit] | – |
| COCC(C)OC(=O)c1c(N)n(-c2ccc(OC)c(OC)c2)c2nc3ccccc3nc12 (stereo unspecified) | 16.4 | 2.06 µM [rising, single point] | – |
| CCOC(=O)CSc1nc(N)c(C#N)cc1C#N | 8.24 | 0.146 µM [falling, full curve, poor fit] | – |
| CCOC(=O)C1=C(CC)OC(N)=C(C#N)C1c1ccsc1 (stereo unspecified) | -0.3 | 32.6 µM [falling, partial curve, poor fit] | – |
| Cc1ccc(O)c(C(=O)c2cc(C#N)c3nc4ccccc4n3c2)c1 | -3.97 | – | – |

| SMILES | cell number change [%] | AC50 [1] | AC50 [2] |
| --- | --- | --- | --- |
| O=C1CC(Nc2ccc(N3CCOCC3)cc2)C(=O)N1CCc1ccccc1 (stereo unspecified) | – | – | 2.31 µM [rising, partial curve] |
| CCCCn1c(N)c(N(CCOC)C(=O)CSCc2cccc(C)c2)c(=O)[nH]c1=O | – | 3.26 µM [rising, single point] | – |
| Cc1nn(-c2ccccc2)c(C)c1/C=N/NC(=O)CSc1nnc(SCc2ccc(Cl)cc2)s1 | -9.84 | 1.16 µM [falling, single point] | – |
| O=S(=O)(Nc1cccnc1)c1ccc(C2CCCCC2)cc1 | 7.25 | 6.51 µM [falling, single point] | – |
| COc1ccc(NC(=O)CSc2ccc(-c3cccnc3)nn2)cc1 | 27.4 | 8.91 µM [rising, partial curve, poor fit] | – |
| CC1=CCC2C(=O)N(c3cccc(C(=O)NCc4ccccc4)c3)C(=O)C2C1 (stereo unspecified) | 13.5 | – | – |
| Cc1cc(C)cc(NC(=O)CN2CCC(NC(=O)c3ccccc3F)CC2)c1 | 11 | 29.1 µM [rising, single point] | – |
| CCOC(=O)C1=C(c2ccccc2)N=c2s/c(=C\c3cc(OC)c(OC)c(OC)c3)c(=O)n2C1c1cccs1 (stereo unspecified) | 20.1 | – | – |
| CCOc1ccccc1C(=O)NCC(=O)Nc1ccc2c(c1)OCO2 | -7.84 | 2.31 µM [falling, single point] | – |
| CC(C)C(NC(=O)C12CC3CC(CC(C3)C1)C2)C(=O)O (stereo unspecified) | -5.38 | – | – |
| Cc1ccc2c(c1)c1nnc(SCC(=O)Nc3ccc(N(C)C)cc3)nc1n2CC(=O)O | 8.47 | 5.8 µM [falling, single point] | – |
| CC(C)OC(=O)/C(=C\c1ccc2c(c1)c1ccccc1n2C)NC(=O)c1ccccc1 | 20.1 | – | – |
| COC(=O)c1sccc1NC(=O)Nc1cc(C)ccc1OC | – | 29.1 µM [falling, single point] | 0.116 µM [falling, full curve, poor fit] |
| CCOC(=O)N1CCN(C(=O)c2c(-c3ccccc3Cl)noc2C)CC1 | 10.9 | – | – |
| Cc1ccc(-c2csc(NC3OC(=O)c4ccccc43)n2)cc1 (stereo unspecified) | 35.2 | 6.51 µM [rising, full curve] | 9.2 µM [rising, partial curve, poor fit] |
| O=S(=O)(NCCOCC(F)(F)C(F)F)c1ccc2oc3ccccc3c2c1 | -5.78 | – | – |
| NC(=O)c1oc2ccc(Cl)cc2c1NC(=O)CN1CCOCC1 | – | 0.731 µM [rising, single point] | 1.84 µM [rising, partial curve] |
| CCC(CC)c1nnc(NC(=O)c2cc(C(=O)OC)cc([N+](=O)[O-])c2)s1 | 34.9 | 32.6 µM [rising, single point] | 8.2 µM [rising, partial curve] |
| CN(C)C(CNC(=O)C1CCN(S(=O)(=O)c2cccc(C(F)(F)F)c2)CC1)c1ccccc1 (stereo unspecified) | 12.1 | – | – |
| COCc1cc(C)nc(SCC[N+](C)(C)CC(=O)Nc2ccccc2)c1C#N | -3.08 | 6.51 µM [falling, single point] | 7.31 µM [falling, single point] |

| SMILES | cell number change [%] | AC50 [1] | AC50 [2] |
| --- | --- | --- | --- |
| O=C(Nc1ccc(Cl)c([N+](=O)[O-])c1)C(Sc1ccccc1)c1ccccc1 (stereo unspecified) | -16.7 | 29.1 µM [falling, single point] | – |
| Cc1ccc(C(=O)NNC(=O)C(NC(=O)c2cccc(C)c2)C(C)C)cc1 (stereo unspecified) | -3.75 | 29.1 µM [rising, single point] | – |
| CCS(=O)(=O)N1CCCC(C(=O)NC2CCCC2)C1 (stereo unspecified) | 36.3 | 32.6 µM [rising, single point] | – |
| Cc1ccc2nsnc2c1NC(=O)c1ccccc1[N+](=O)[O-] | 41.7 | 2.91 µM [falling, partial curve] | 29.1 µM [rising, single point] |
| Cc1ccc(S(=O)(=O)N(CCC#N)C2CCCCC2)c2nsnc12 | -0.817 | 0.146 µM [falling, full curve, poor fit] | – |
| COc1cnc(-c2ccccn2)nc1N(C)c1ccccc1 | -21.7 | 29.1 µM [falling, single point] | – |
| Cc1cc(C)c2oc(-c3cccc(NC(=O)c4ccc(F)cc4)c3)nc2c1 | – | 2.06 µM [rising, partial curve] | 0.517 µM [rising, full curve] |
| COc1ccc(-c2noc(-c3ccc4c(c3)OCO4)n2)cc1 | -20.1 | 1.03 µM [falling, full curve] | – |
| COc1ccccc1NC(=O)Cc1noc(CN(C)Cc2cccs2)n1 | 24.6 | 0.0291 µM [rising, full curve, poor fit] | – |
| CC(C)[C@H](NC(=O)OCc1ccccc1)C(=O)N[C@@H](Cc1c[nH]c2ccccc12)C(=O)O (Cbz-Val-Trp-OH) | 14 | 1.46 µM [rising, partial curve, poor fit] | – |
| O=C(O)COc1cccc2ccccc12 | – | 3.66 µM [falling, partial curve] | – |
| O=[N+]([O-])c1cccc(/C=N/N2CCN(Cc3ccc(Cl)cc3)CC2)c1 | 9.01 | 0.164 µM [rising, full curve, poor fit] | – |
| COc1ccccc1C(=O)NC1CCN(C(=O)Nc2ccc(C)cc2)CC1 | 26.2 | 0.116 µM [rising, single point] | – |
| COc1ccc(C(=O)N/N=C/c2ccc(N3CCOCC3)s2)cc1OC | 7.59 | 16.4 µM [rising, partial curve, poor fit] | – |
| C[C@H](NS(=O)(=O)c1ccc2c(c1)OCCCO2)C(=O)N1CCN(Cc2ccc(C#N)cc2)CC1 | 22.4 | 7.31 µM [falling, partial curve, poor fit] | – |
| COc1ccc(NS(=O)(=O)c2ccc(NS(=O)(=O)c3cccs3)cc2)c(OC)c1 | -5.24 | – | – |
| COC(=O)c1sc2cc(=O)n(-c3cccc(C(F)(F)F)c3)nc2c1O | 40.8 | 16.4 µM [rising, single point] | 18.4 µM [rising, single point] |
| CC(=O)OCC(=O)[C@@]1(O)CC[C@H]2[C@@H]3CCC4=CC(=O)C=C[C@]4(C)[C@H]3[C@@H](O)C[C@@]21C | -6.33 | 0.00517 µM [rising, full curve, poor fit] | – |
| O=C(Cn1cnc2c(cnn2-c2ccc(Cl)cc2)c1=O)N1CCN(c2ccccc2)CC1 | 0.962 | 2.59 µM [falling, full curve] | – |
| Cc1ccc(N2CC(C(=O)OCC(=O)Nc3ccc(Cl)cc3)CC2=O)cc1 (stereo unspecified) | -12.2 | 0.517 µM [rising, partial curve, poor fit] | – |
